These are yes or no findings as the source states them, for the method shown. A result given as binding can be weak or reduced; the word gives no strength.
Biological target: microtubule polymers (alpha/beta tubulin)
Experiment: co-sedimentation

B1: Smc5 hinge domain (residues 215 to 885) (domain or fragment, UniProt Q08204 215-885)
chain: LRELQGNEQSLQKDLDFKKAKIVHLRQESDKLRKSVESLRDFQNKKGEIELHSQLLPYVKVKDHKEKLNIYKEEYERAKANLRAILKDKKPFANTKKTLENQVEELTEKCSLKTDEFLKAKEKINEIFEKLNTIRDEVIKKKNQNEYYRGRTKKLQATIISTKEDFLRSQEILAQTHLPEKSVFEDIDIKRKEIINKEGEIRDLISEIDAKANAINHEMRSIQRQAESKTKSLTTTDKIGILNQDQDLKEVRDAVLMVREHPEMKDKILEPPIMTVSAINAQFAAYLAQCVDYNTSKALTVVDSDSYKLFANPILDKFKVNLRELSSADTTPPVPAETVRDLGFEGYLSDFITGDKRVMKMLCQTSKIHTIPVSRRELTPAQIKKLITPRPNGKILFKRIIHGNRLVDIKQSAYGSKQVFPTDVSIKQTNFYQGSIMSNEQKIRIENEIINLKNEYNDRKSTLDALSNQKSGYRHELSELASKNDDINREAHQLNEIRKKYTMRKSTIETLREKLDQLKREARKDVSQKIKDIDDQIQQLLLKQRHLLSKMASSMKSLKNCQKELISTQILQFEAQNMDVSMNDVIGFFNEREADLKSQYEDKKKFVKEMRDTPEFQSWMREIRSYDQDTKEKLNKVAEKYEEEGNFNLSFVQDVLDKLESEIAMVNHDES
**Q.** B1 was tested. Which binding did it give?
**A.** The binding was “binds”.
